{
  "source": "patent US8546404B2",
  "about": "“Compounds that are ERK inhibitors” (Merck Sharp & Dohme, priority 2005, dated 2013)",
  "test": "Cassette Accelerating Rapid Rat Screen (CARRS), AUC during the first 6 hours",
  "format": "in vivo, Male Sprague-Dawley rats",
  "conditions": "AUC during the first 6 hours (AUC6hr)",
  "note": "The structures given here were assigned with low confidence; some may be wrong.",
  "data": [
    {"smiles": "C#CC1(C(=O)Nc2ccc3[nH]nc(-c4ccc(F)cc4)c3c2)CCN(CC(=O)N2CCN(c3ccc(-c4ncccn4)cn3)C[C@H]2C)C1", "note": "(stereo partly shown)", "values": [
      {"measurement": "Rat AUC PO", "result": 6.466, "unit": "µM·h"}
    ]}
  ]
}
